No constants are given. Whether binding was seen depends on the method and setting. Binding seen in cells or lysates may run through a third protein. A result given as binding can be weak or reduced; the word gives no strength.

Amino acid sequences for entries named in this document (tags omitted). A change or cut given only in a name is not applied to a line headed by its entry.
UniProt P33076: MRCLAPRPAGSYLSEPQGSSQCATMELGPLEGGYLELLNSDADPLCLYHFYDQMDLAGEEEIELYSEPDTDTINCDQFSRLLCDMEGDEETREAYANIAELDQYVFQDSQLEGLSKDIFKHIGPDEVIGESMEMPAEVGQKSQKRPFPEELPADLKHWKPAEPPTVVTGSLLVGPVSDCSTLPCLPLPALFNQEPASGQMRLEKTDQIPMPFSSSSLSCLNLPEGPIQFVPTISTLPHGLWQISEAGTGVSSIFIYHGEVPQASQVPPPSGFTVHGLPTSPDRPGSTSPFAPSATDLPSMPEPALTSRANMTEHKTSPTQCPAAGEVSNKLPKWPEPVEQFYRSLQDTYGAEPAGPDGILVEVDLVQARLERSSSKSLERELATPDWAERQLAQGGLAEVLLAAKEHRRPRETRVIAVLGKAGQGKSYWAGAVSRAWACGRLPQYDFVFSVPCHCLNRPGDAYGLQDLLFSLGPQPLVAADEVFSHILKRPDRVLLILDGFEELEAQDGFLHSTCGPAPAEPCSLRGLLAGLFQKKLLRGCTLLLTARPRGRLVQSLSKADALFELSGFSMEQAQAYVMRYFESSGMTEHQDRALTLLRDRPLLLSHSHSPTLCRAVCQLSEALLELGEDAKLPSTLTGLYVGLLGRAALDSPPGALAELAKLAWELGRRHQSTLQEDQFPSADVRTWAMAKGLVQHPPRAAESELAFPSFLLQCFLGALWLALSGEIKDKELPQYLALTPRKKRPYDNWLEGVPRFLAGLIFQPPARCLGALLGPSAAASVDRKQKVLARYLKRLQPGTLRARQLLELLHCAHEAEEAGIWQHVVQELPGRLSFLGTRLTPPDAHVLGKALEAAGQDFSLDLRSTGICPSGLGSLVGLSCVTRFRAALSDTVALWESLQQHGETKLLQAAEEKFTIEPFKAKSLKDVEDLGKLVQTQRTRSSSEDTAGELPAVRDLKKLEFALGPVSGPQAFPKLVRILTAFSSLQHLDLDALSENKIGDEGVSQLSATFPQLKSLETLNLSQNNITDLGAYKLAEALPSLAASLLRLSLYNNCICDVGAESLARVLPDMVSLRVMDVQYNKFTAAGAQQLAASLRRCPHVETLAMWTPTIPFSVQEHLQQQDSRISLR
UniProt P20226: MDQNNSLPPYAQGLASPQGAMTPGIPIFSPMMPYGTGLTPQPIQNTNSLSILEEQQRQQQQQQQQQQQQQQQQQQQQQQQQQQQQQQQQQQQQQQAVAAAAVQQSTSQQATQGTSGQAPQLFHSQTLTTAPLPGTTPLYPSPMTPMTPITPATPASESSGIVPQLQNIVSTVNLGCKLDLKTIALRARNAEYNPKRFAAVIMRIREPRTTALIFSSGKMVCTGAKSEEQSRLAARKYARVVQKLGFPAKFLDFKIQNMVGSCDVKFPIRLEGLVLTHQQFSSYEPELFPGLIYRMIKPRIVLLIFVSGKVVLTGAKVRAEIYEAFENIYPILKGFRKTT
UniProt Q96L91: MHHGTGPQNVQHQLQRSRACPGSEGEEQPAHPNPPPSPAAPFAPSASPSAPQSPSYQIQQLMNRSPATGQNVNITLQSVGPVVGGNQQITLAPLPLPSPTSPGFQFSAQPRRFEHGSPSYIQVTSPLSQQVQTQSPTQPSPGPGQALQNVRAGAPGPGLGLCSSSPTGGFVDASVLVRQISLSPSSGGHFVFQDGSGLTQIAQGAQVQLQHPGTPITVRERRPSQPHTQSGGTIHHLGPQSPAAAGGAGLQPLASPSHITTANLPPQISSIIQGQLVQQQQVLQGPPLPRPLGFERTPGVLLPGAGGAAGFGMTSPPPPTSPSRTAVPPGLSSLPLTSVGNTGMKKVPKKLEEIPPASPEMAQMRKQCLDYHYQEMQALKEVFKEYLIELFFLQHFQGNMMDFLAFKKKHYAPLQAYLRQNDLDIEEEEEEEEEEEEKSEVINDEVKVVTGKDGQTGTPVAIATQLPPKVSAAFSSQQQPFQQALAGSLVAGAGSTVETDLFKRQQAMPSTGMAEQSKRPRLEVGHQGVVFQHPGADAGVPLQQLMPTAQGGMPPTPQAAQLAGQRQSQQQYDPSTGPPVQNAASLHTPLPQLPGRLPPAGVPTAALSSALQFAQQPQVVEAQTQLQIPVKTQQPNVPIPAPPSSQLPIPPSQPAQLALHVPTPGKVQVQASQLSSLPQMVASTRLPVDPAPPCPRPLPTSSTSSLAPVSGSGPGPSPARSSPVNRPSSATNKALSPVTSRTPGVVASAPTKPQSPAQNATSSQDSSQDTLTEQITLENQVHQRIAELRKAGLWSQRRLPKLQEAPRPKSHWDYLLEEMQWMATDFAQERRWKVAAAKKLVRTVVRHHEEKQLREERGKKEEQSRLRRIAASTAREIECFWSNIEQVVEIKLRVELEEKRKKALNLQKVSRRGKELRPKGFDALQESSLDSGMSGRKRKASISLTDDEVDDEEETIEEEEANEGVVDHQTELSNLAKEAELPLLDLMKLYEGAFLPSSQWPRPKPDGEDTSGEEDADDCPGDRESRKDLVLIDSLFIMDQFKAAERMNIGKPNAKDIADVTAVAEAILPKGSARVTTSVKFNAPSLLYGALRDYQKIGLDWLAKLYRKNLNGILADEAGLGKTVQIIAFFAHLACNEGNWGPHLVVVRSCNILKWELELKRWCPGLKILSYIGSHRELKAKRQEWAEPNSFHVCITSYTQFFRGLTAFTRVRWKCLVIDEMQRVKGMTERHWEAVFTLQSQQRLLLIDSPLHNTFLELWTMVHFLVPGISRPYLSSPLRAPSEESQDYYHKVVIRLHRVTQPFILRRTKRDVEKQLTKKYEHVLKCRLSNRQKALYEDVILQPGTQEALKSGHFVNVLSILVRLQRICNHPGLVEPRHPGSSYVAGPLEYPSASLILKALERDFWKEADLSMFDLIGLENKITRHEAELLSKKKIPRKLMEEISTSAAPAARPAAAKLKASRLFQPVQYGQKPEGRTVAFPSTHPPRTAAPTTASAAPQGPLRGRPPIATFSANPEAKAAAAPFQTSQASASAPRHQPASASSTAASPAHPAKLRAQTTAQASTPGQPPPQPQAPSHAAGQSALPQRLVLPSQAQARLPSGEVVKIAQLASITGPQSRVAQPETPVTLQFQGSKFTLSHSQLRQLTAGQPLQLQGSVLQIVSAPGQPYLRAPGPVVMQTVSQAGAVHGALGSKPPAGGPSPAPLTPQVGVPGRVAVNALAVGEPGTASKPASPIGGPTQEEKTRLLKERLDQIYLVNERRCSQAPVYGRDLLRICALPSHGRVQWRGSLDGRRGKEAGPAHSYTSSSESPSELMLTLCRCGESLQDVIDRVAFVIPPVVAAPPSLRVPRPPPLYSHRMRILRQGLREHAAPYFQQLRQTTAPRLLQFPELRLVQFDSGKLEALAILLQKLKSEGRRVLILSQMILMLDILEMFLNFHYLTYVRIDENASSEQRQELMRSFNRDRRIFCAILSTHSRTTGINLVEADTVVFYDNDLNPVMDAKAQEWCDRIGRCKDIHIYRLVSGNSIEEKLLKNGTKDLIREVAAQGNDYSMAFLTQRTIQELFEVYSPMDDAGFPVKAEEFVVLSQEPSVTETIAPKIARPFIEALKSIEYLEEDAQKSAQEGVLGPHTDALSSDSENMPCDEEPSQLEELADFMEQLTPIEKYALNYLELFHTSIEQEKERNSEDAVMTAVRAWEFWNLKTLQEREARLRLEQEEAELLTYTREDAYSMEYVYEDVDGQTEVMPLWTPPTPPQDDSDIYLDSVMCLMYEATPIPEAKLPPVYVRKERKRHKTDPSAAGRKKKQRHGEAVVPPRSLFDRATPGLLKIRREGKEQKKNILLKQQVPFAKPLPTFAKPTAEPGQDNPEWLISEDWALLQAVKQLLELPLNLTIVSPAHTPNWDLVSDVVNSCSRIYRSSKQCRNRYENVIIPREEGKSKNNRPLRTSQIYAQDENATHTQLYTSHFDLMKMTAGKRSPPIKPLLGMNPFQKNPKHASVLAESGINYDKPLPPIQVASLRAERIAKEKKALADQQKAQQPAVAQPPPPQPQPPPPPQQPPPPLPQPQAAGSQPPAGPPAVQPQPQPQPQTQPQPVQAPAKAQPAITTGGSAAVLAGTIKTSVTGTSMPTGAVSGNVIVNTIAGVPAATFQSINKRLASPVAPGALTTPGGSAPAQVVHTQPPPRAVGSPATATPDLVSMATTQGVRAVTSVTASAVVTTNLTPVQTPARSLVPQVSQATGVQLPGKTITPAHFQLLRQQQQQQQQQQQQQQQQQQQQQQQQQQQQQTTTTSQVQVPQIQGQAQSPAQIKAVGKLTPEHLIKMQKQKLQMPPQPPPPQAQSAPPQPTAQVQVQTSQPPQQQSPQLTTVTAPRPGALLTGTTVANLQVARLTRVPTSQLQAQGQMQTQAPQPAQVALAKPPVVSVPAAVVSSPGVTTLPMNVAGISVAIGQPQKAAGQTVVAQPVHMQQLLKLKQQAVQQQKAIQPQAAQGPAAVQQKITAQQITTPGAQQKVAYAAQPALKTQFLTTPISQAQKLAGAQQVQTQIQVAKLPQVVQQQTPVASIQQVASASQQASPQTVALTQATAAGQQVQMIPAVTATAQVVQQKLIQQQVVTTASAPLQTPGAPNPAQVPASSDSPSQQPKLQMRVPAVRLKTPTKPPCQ
UniProt P62195: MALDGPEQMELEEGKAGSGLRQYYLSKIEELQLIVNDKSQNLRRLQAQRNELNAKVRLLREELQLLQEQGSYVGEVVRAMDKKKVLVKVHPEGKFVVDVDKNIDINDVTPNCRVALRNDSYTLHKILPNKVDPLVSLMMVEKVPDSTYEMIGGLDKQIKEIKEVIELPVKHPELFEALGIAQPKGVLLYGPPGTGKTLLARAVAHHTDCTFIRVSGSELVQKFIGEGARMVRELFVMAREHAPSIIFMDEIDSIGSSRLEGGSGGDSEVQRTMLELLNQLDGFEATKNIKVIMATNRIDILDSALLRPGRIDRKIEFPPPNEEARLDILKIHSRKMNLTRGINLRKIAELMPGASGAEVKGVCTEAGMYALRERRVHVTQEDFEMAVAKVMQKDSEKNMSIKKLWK
UniProt P48382: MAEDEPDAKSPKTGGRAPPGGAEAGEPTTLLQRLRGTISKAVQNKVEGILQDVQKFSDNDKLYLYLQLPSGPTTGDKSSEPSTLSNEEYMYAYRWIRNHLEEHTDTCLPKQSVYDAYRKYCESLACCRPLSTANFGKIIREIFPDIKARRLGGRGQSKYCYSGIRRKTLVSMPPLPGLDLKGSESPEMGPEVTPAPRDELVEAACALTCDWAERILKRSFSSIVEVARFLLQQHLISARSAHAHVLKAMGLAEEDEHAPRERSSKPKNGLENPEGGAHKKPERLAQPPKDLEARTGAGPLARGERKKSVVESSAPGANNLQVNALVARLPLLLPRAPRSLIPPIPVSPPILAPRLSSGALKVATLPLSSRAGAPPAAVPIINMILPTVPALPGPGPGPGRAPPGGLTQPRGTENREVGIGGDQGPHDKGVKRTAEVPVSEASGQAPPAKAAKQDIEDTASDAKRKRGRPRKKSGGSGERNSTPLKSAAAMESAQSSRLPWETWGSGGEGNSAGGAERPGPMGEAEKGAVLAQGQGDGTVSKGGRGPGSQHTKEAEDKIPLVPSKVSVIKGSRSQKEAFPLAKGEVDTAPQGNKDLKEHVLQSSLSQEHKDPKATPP

In the assay the target is CIITA-∆36 (N-terminal deletion mutant of CIITA-FIII, I120E121 form) (human) (UniProt P33076). The assay can be described thus: co-IP; protein extracts of stably transfected HEK293-EBNA cells immunoprecipitated with CIITA-specific antiserum K5 and protein A-sepharose; SDS-PAGE (8% gel) and western blotting for the co-precipitated endogenous proteins. On the technique in general: In western blotting, separated proteins are transferred to a membrane and probed.

For “TATA-box binding protein (TBP) (from UniProt P20226 1-339)”, the binding entry is on record as “binds”.

Regarding “chromatin remodeling protein p400/Domino (from UniProt Q96L91 1-3159)”, the binding entry is listed as “no binding”.

With “coactivator p300 (from UniProt Q09472 1-2414)”, the binding entry was “binds”.

For “19S proteasome ATPase S8 (Sug1) (from UniProt P62195 1-406)”, the binding entry was “binds”.

Consider “RFX5 subunit of the RFX complex (from UniProt P48382 1-616)”, for which the binding result is on record as “binds”.

The values are drawn from PMC4752451.
